Test results reported in patent US11154858B2, “Microfluidic tissue development systems” (University of Pittsburgh—Of the Commonwealth System of …, priority 2015, dated 2021).
At least one compound was matched to its structure with a doubt left.

Tested on: chondrocytes in the cartilage chamber
Test: RT-PCR marker expression, chondrocyte response in cartilage (top) chamber of the bioreactor
Format: cell-based
Method: FIGS. 17-20 are graphs that show differential expression of markers (as determined by RT-PCR) for a control medium that contained no estrogen or progesterone (first bar), and then different concentrations of hormones supplied to one or the other of the bioreactor chambers during week 1 (w1: 0.1 nM estradiol), week 2 (w2: 1 nM estradiol), week 3 (w3: 1 nM estradiol and 10 nM progesterone), and week 4 (w4: 0.1 nM estradiol and 50 nM progesterone). […] FIGS. 17-18 show differential expression of markers (as determined by RT-PCR) for a control medium that contained no estrogen or progesterone (first bar), and then different concentrations of hormones supplied to the chambers during week 1 (w1: 0.1 nM estradiol), week 2 (w2: 1 nM estradiol), week 3 (w3: 1 nM estradiol and 10 nM progesterone), and week 4 (w4: 0.1 nM estradiol and 50 nM progesterone).

## C[C@]12CC[C@@H]3c4ccc(O)cc4CC[C@H]3[C@@H]1CC[C@@H]2O [estradiol]
Estradiol administered to the osseous side
  expression of cartilage hypertrophy marker ColX: upregulated
Estradiol weeks 1 and 2 (0.1 nM, 1 nM), FIGS. 17-18
  expression of cartilage anabolic markers such as Sox9 and Aggrecan: downregulated
